{"source": "paper doi:10.1101/756429", "molecular_target": "ArdC mutant protein E229A (plasmid R388)", "assay": "pull-down", "note": "These are yes or no findings as the source states them, for the method shown. In cells and extracts the contact can be indirect. A result given as binding can be weak or reduced; the word gives no strength."}
{"binder": "PP_0941 (protein, UniProt Q88PA9 1-173) MVDSNDDAFDGEKSKTQIKRELHALVELGERLTTLKADTLARLPLTDELRKALAEASKHTAHGARKRHMSFVGKLMRVQDLDAIHALLEQMDSSTRQYNERFHSLERWRDRLIDGNDEDLERFVNEYPDTDRQQLRSLVRHAQHEKARNKPPAAARKVFKYIRDLDELQRGLR", "values": [{"measurement": "binding", "value": "binds"}]}
